PubChem BioAssay AID1259308 – NCATS, 2017

Aim: 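Genes whose loss raises luciferase production in HEK293 cells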 (primary screen)
Cell system: human HEK293 embryonic kidney cells stably expressing firefly luciferase (HEK-CMV-Luc2-Hygro)
Knock-down reagent: single siRNA against human genes, 0.8 pmol siRNA per well
Timing: 72 h
Measured: 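Reporter luminescence and viable-cell signal on separate replicate plates, given as percent of non-targeting control and median/MAD z-scores, plus per-cell luciferase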
Scale: total luciferase, z-score and total luciferase, % of control: higher = more reporter protein produced; luciferase per cell, z-score: higher = more reporter output per viable cell; viable cells, % of control: higher = more viable cells
Rule for the call: 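Active when the median/MAD z-score for overall luciferase is greater than 3; a gene was taken forward for validation with new siRNAs if at least two of its three siRNAs passed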
Calls: active = raised luciferase; inactive = no rise
Here is a random part of about 59,000 deposited reagents. About 1,510 of all reagents (2.6%) were called active. 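Calls use total luciferase alone and ignore viability, so some active siRNAs may act by altering cell number.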 Reagents against one gene are numbered here.

The opening 2 records, to show the layout:
total luciferase, z-score | total luciferase, % of control | luciferase per cell, z-score | viable cells, % of control | activity call | target gene | reagent
1.8 | 118 | 1.68 | 84.5 | inactive | SLC9A1 (GeneID 6548) | 1
0.131 | 84.5 | -0.697 | 113 | inactive | SLC9A1 (GeneID 6548) | 2

Main list, from the first entry:
total luciferase, z-score | total luciferase, % of control | luciferase per cell, z-score | viable cells, % of control | activity call | target gene | reagent
1.8 | 118 | 1.68 | 84.5 | inactive | SLC9A1 (GeneID 6548) | 1
0.131 | 84.5 | -0.697 | 113 | inactive | SLC9A1 (GeneID 6548) | 2
1.36 | 109 | 1.26 | 87.3 | inactive | SLC9A1 (GeneID 6548) | 3
0.156 | 85 | 0.101 | 92.5 | inactive | DCAF8L1 (GeneID 139425) | 1
0.396 | 89.8 | 0.423 | 89.7 | inactive | DCAF8L1 (GeneID 139425) | 2
0.294 | 87.7 | 0.0497 | 96.8 | inactive | DCAF8L1 (GeneID 139425) | 3
0.779 | 97.4 | 1.34 | 76.4 | inactive | NCR2 (GeneID 9436) | 1
-0.935 | 63.3 | -0.733 | 85.8 | inactive | NCR2 (GeneID 9436) | 2
0.798 | 97.8 | 1.44 | 74.9 | inactive | NCR2 (GeneID 9436) | 3
-0.00977 | 81.7 | -0.098 | 93.7 | inactive | ESR2 (GeneID 2100) | 1
-0.0291 | 81.3 | 0.247 | 85.1 | inactive | ESR2 (GeneID 2100) | 2
-2.35 | 35.1 | -2.68 | 79.5 | inactive | ESR2 (GeneID 2100) | 3
0.519 | 92.2 | 0.501 | 90.3 | inactive | ANKFN1 (GeneID 162282) | 1
0.299 | 87.8 | 0.447 | 87.3 | inactive | ANKFN1 (GeneID 162282) | 2
0.72 | 96.2 | 0.613 | 91.5 | inactive | ANKFN1 (GeneID 162282) | 3
-0.211 | 77.7 | -0.526 | 99.7 | inactive | DSC2 (GeneID 1824) | 1
-0.633 | 69.3 | -0.387 | 85.7 | inactive | DSC2 (GeneID 1824) | 2
-1.15 | 59 | -0.226 | 69.9 | inactive | DSC2 (GeneID 1824) | 3
2.48 | 131 | 2.39 | 78.1 | inactive | SPOCK2 (GeneID 9806) | 1
-0.768 | 66.6 | -0.443 | 83.6 | inactive | SPOCK2 (GeneID 9806) | 2
1 | 102 | 0.826 | 91.5 | inactive | SPOCK2 (GeneID 9806) | 3
0.0508 | 82.9 | 0.523 | 80.7 | inactive | SHROOM2 (GeneID 357) | 1
-0.197 | 78 | -0.413 | 97.1 | inactive | SHROOM2 (GeneID 357) | 2
-0.509 | 71.8 | -0.523 | 92 | inactive | SHROOM2 (GeneID 357) | 3
-0.368 | 74.6 | -0.511 | 95.3 | inactive | PRSS21 (GeneID 10942) | 1
0.709 | 96 | 2.22 | 59.8 | inactive | PRSS21 (GeneID 10942) | 2
-0.384 | 74.3 | -0.851 | 104 | inactive | PRSS21 (GeneID 10942) | 3
0.471 | 91.3 | 0.17 | 97.5 | inactive | RPAP1 (GeneID 26015) | 1
-1.44 | 53.2 | -1.7 | 93 | inactive | RPAP1 (GeneID 26015) | 2
-1.11 | 59.8 | -1.08 | 88.7 | inactive | RPAP1 (GeneID 26015) | 3
-0.232 | 77.3 | -0.261 | 92.5 | inactive | H2AC8 (GeneID 3012) | 1
-0.135 | 79.2 | 0.0684 | 86.9 | inactive | H2AC8 (GeneID 3012) | 2
0.896 | 99.7 | 0.134 | 108 | inactive | H2AC8 (GeneID 3012) | 3
1.63 | 114 | 2.17 | 72.1 | inactive | NMNAT3 (GeneID 349565) | 1
-0.801 | 65.9 | 0.0782 | 72.2 | inactive | NMNAT3 (GeneID 349565) | 2
-0.64 | 69.2 | -0.968 | 99.7 | inactive | NMNAT3 (GeneID 349565) | 3
-0.334 | 75.3 | -0.236 | 89.5 | inactive | ZBTB6 (GeneID 10773) | 1
-1.62 | 49.6 | -1.72 | 87.2 | inactive | ZBTB6 (GeneID 10773) | 2
-1.1 | 60 | -0.934 | 85.7 | inactive | ZBTB6 (GeneID 10773) | 3
